Literature values in patent US20070043509A1, “Albumin binding sites for evaluating drug interactions and methods of evaluating or designing drugs based on their albumin binding properties” (priority 2003, published 2007).
At least one compound was matched to its structure with a doubt left.

Amino acid sequences for entries named in this document (tags omitted). Residues count along the entry.
UniProt P02768, 25-609 R138G: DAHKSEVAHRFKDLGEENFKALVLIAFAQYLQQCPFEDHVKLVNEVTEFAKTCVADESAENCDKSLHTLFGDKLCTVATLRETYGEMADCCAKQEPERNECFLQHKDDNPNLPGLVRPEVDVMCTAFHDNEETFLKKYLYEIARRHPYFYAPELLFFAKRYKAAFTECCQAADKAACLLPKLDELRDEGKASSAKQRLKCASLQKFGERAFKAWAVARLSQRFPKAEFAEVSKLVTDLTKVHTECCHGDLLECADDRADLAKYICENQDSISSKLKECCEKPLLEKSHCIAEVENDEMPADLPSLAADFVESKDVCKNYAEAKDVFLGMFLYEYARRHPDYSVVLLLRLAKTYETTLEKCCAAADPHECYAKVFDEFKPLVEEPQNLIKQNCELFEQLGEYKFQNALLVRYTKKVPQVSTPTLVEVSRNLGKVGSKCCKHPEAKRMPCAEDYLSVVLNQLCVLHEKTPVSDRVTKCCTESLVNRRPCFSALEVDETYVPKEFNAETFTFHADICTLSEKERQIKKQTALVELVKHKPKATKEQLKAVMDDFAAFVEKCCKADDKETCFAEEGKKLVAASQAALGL

Target: HSA variant Yanomama-2 (114R→G) (Homo sapiens, UniProt P02768, R138G)
Settings: Yanomama-2, Arg 114 substituted by Gly; compared with normal HSA

C=CC1=C(C)/C(=C/c2[nH]c(Cc3[nH]c(/C=C4\NC(=O)C(C)=C4C=C)c(C)c3CCC(=O)O)c(CCC(=O)O)c2C)NC1=O [bilirubin]
Affinity of HSA variant for bilirubin: reduced affinity
